Here are results for 30 compounds from PubChem BioAssay AID328 (DTP/NCI, 2004).

For the assay, the system named is BDF1 mice, P388 leukemia ip, median survival T/C. Briefly: NCI In Vivo Anticancer Drug Screen. Data for tumor model P388 Leukemia (intraperitoneal) in B6D2F1 (BDF1) mice. The conditions noted are these: T/C endpoint: median survival time, higher T/C = longer survival. The method in brief: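 Mice carrying the transplantable tumour receive compound or vehicle. Survival is followed in each arm, and the treated measure is divided by the vehicle measure.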

Setting [1] is: dose: 200.0 mg/kg/injection, schedule: Q01DX009 (ip), vehicle: saline.
Where [2] appears, read: dose: 200.0 mg/kg/injection, schedule: Q01DX009 (ip), vehicle: saline with Tween-80.
Setting [3] is: dose: 400.0 mg/kg/injection, schedule: Q01DX009 (ip), vehicle: saline with Tween-80.
The mark [4] stands for this setting: dose: 400.0 mg/kg/injection, schedule: Q01DX009 (ip), vehicle: saline.
Where [5] appears, read: dose: 5.0 mg/kg/injection, schedule: Q01DX009 (ip), vehicle: alcohol.
Setting [6] is: dose: 400.0 mg/kg/injection, schedule: Q04DX003 (ip), vehicle: saline.
[7] abbreviates: dose: 25.0 mg/kg/injection, schedule: Q01DX009 (ip), vehicle: saline with Tween-80.
Setting [8] is: dose: 100.0 mg/kg/injection, schedule: Q01DX009 (ip), vehicle: saline.
Setting [9] is: dose: 200.0 mg/kg/injection, schedule: Q04DX003 (ip), vehicle: saline with Tween-80.
Setting [10] is: dose: 400.0 mg/kg/injection, schedule: Q01DX001 (ip), vehicle: saline with Tween-80.
[11] abbreviates: dose: 25.0 mg/kg/injection, schedule: Q01DX009 (ip), vehicle: saline.

The list is a part of this screen's results and no random one: it gathers tests that were run many times, whatever their T/C, doses with no T/C, and many T/C values between a quarter and a half above the control. Other doses and runs of a compound stand elsewhere. T/C: endpoint of the treated group in % of that of the vehicle group. Some doses have a count of surviving animals in place of a T/C: the source holds a T/C of zero for them, seemingly a mark for toxic or unscored doses. Some doses without a T/C left all or most animals alive at the check, yet need not have been tolerated: survival well below the control is almost never listed, so the zero probably covers shortened survival too. Survivors were counted at the toxicity check, usually on the fifth day, unless a day is given; later deaths do not show. Schedule codes are those of the source, taken here to give the interval after Q, in days (D) or hours (H), and the number of doses after X. Some entries were tested several times; the values are given in rising order. Where survival is the endpoint, the PubChem record calls one and a half times the control and up active, and a quarter to a half above the control has no call in these data; cut-offs in other NCI protocols can differ. Some T/C values carry the count of animals alive at the toxicity check (mostly the fifth day); where none is given, no animal had died by that day.

Take `O=C(O)CCCCc1ccc(CCCCC(=O)O)cc1`: the T/C (dose: 75.0 mg/kg/injection, schedule: Q04DX003 (ip), vehicle: Klucel (hydroxypropylcellulose) (HPC)) is 130 % of control. The survivor count reads like this: (dose: 150.0 mg/kg/injection, schedule: Q01DX009 (ip), vehicle: Klucel (hydroxypropylcellulose) (HPC)) 6 of 6; (dose: 225.0 mg/kg/injection, schedule: Q01DX009 (ip), vehicle: Klucel (hydroxypropylcellulose) (HPC)) 6 of 6; (dose: 300.0 mg/kg/injection, schedule: Q04DX003 (ip), vehicle: Klucel (hydroxypropylcellulose) (HPC)) 0 of 6.

Take `C#CC(C)OCC1CO1` (stereo unspecified): the survivor count under setting [1] is 3 of 6.

For the compound `CC(=O)Oc1ccc[nH]c1=O`, the T/C under setting [2] is 125 % of control; the T/C under setting [3] is 134 and 135 % of control; the T/C (dose: 600.0 mg/kg/injection, schedule: Q01DX009 (ip), vehicle: saline with Tween-80) was 148 % of control [5 of 6 alive].

Take `NC(Cc1cccc(NP(=S)(N2CC2)N2CC2)c1)C(=O)O` (stereo unspecified): the T/C (dose: 75.0 mg/kg/injection, schedule: Q04DX003 (ip), vehicle: saline) is 145 % of control.

On to `CN1c2c(nc(N)[nH]c2=O)NCC1CCNc1ccc(C(=O)NC(CCC(=O)O)C(=O)O)cc1` (stereo unspecified), for which the T/C is 127 % of control (dose: 100.0 mg/kg/injection, schedule: Q01DX009 (ip), vehicle: other); 127 % of control (dose: 400.0 mg/kg/injection, schedule: Q01DX009 (ip), vehicle: other); 128 % of control under setting [4].

Consider `CC1=CC(=O)c2c(O)ccc(O)c2C1=O`, for which the survivor count reads like this: (dose: 1.25 mg/kg/injection, schedule: Q01DX009 (ip), vehicle: alcohol) 2 of 6; under setting [5], 1 of 6; (dose: 10.0 mg/kg/injection, schedule: Q01DX009 (ip), vehicle: alcohol) 0 of 6 and 1 of 6. Also, the T/C by setting is: (dose: 2.5 mg/kg/injection, schedule: Q01DX009 (ip), vehicle: alcohol) 138 % of control [5 of 6 alive]; under setting [5], 125 % of control.

`C1CCC(=[N+]2CCCC2)CC1`: the survivor count under setting [6] is recorded as 2 of 6.

Regarding `C/C(=C/c1cc2c(cc1Br)OCO2)[N+](=O)[O-]`, the T/C (dose: 400.0 mg/kg/injection, schedule: Q04DX003 (ip), vehicle: saline with Tween-80) is 126 % of control [5 of 6 alive].

On to `CC[CH2][Pb]([Cl])([CH2]CC)[CH2]CC`, for which the survivor count by setting is: (dose: 12.5 mg/kg/injection, schedule: Q01DX009 (ip), vehicle: DMSO) 0 of 6; (dose: 25.0 mg/kg/injection, schedule: Q01DX009 (ip), vehicle: DMSO) 0 of 6; (dose: 50.0 mg/kg/injection, schedule: Q01DX009 (ip), vehicle: DMSO) 0 of 6.

As for `CCOC(=O)C1=C(Nc2ccc([N+](=O)[O-])cc2)CCCC1`, the survivor count was 6 of 6 (dose: 12.5 mg/kg/injection, schedule: Q01DX009 (ip), vehicle: saline with Tween-80); 6 of 6 under setting [7]; 5 of 6 (dose: 50.0 mg/kg/injection, schedule: Q01DX009 (ip), vehicle: saline with Tween-80); 2 of 6 under setting [8]; 0 of 6 under setting [1].

As for `CC(C)(C)N1CCOCC1`, the survivor count is 0 of 6 under setting [8] and 1 of 6 (dose: 170.0 mg/kg/injection, schedule: Q04DX003 (ip), vehicle: saline).

As for `C/C(=C\c1ccc(N(C)C)cc1C)[N+](=O)[O-]`, the T/C was 128 % of control under setting [2] and 127 % of control under setting [3].

In the case of `C[C@]12CC[C@H]3[C@@H](CCC4=CC(=O)CC[C@@H]43)[C@@H]1CC[C@@H]2OC(=O)CCc1ccccc1`, under setting [9], the survivor count is recorded as 6 of 6.

In the case of `CC(=O)OCC(OC(C)=O)C(OC(C)=O)C(C#N)OC(C)=O` (stereo unspecified), the survivor count under setting [9] was 4 of 6.

With `C/C(=N\NC(=O)C(=O)N/N=C(\C)c1ccccc1)c1ccccc1`, the survivor count under setting [2] was 6 of 6.

Turning to `CCC(CCC(C)C1CCC2C3CC=C4CC(OC5OC(CO)C(O)C(O)C5O)CCC4(C)C3CCC12C)C(C)C` (stereo unspecified), under “dose: 400.0 mg/kg/injection, schedule: Q04DX003 (ip), vehicle: Klucel (hydroxypropylcellulose) (HPC)”, the survivor count is reported as 5 of 6.

Take `Cc1[nH]nc(-c2ccon2)c1N=O`: the survivor count under setting [2] was 1 of 6.

For `CCN(CC)CC(COC)Oc1cc(C)ccc1C(C)C` (stereo unspecified), the survivor count under setting [2] is 5 of 6.

`CSc1ccc(NC(=O)NNP(=S)(Oc2ccc(C(C)(C)C)cc2)Oc2ccc(C(C)(C)C)cc2)cc1`: under “dose: 200.0 mg/kg/injection, schedule: Q01DX005 (ip), vehicle: saline with Tween-80”, the survivor count was 5 of 5.

Turning to `O=C(c1ccccc1)C(c1ccccc1)C(O)(C(F)(F)F)C(F)(F)F` (stereo unspecified), the T/C under setting [10] was 127 % of control.

In the case of `NC(N)=NCCCCCC(=O)O`, the survivor count is, setting by setting: (dose: 100.0 mg/kg/injection, schedule: Q01DX001 (ip), vehicle: saline) 6 of 6; (dose: 200.0 mg/kg/injection, schedule: Q01DX001 (ip), vehicle: saline) 3 of 6; under setting [6], 3 of 6.

As for `CCOC(=O)C(C)(OCC)OCC`, the T/C (dose: 400.0 mg/kg/injection, schedule: Q01DX009 (ip), vehicle: water) was 131 % of control [5 of 6 alive].

On to `CC(Oc1ccccc1-c1ccccc1)C(=O)N(C)C` (stereo unspecified), for which, under setting [7], the T/C is 126 % of control.

As to `Nc1nncs1`, the T/C was 127 % of control (dose: 31.3 mg/kg/injection, schedule: Q01DX010 (ip), vehicle: saline); 136 % of control (dose: 50.0 mg/kg/injection, schedule: Q04DX003 (ip), vehicle: saline); 127 % of control (dose: 64.8 mg/kg/injection, schedule: Q04DX003 (ip), vehicle: saline). For the same compound, the survivor count is 6 of 6 and 7 of 7 (dose: 62.5 mg/kg/injection, schedule: Q01DX010 (ip), vehicle: saline); 6 of 6 (dose: 125.0 mg/kg/injection, schedule: Q01DX010 (ip), vehicle: saline); 6 of 6 (dose: 250.0 mg/kg/injection, schedule: Q01DX010 (ip), vehicle: saline); 1 of 8 (dose: 300.0 mg/kg/injection, schedule: Q04DX003 (ip), vehicle: saline); 1 of 8 (dose: 480.0 mg/kg/injection, schedule: Q04DX003 (ip), vehicle: other); 4 of 6 (dose: 500.0 mg/kg/injection, schedule: Q01DX010 (ip), vehicle: saline). For the same compound, the survivor count (dose: 800.0 mg/kg/injection, schedule: Q04DX003 (ip), vehicle: other) is 0 of 8.

Turning to `NN(C(=O)c1ccccc1)c1ccccc1`, the survivor count (dose: 100.0 mg/kg/injection, schedule: Q01DX009 (ip), vehicle: Klucel (hydroxypropylcellulose) (HPC)) was 4 of 6.

Consider `CC(C)NCc1ccccc1Sc1ccccc1`, for which the survivor count is listed as 0 of 6 (dose: 200.0 mg/kg/injection, schedule: Q01DX001 (ip), vehicle: saline with Tween-80) and 0 of 6 under setting [10].

Take `O=C(Nc1ccc(Cl)cc1)P(=O)(O)c1ccccc1`: the survivor count by setting is: under setting [11], 6 of 6; under setting [1], 6 of 6; under setting [4], 4 of 6.

Consider `CC(CCCSC(=N)N)SC(=N)N` (stereo unspecified), for which the survivor count under setting [1] is reported as 2 of 6.

Take `COc1cccc2c1C(=O)c1c(O)c3c(c(O)c1C2=O)C[C@@](O)(C(=O)CO)C[C@@H]3OC1CC(NC(=S)Nc2ccc3ccccc3c2)C(O)C(C)O1` (stereo partly specified): the T/C (dose: 6.25 mg/kg/injection, schedule: Q01DX009 (ip), vehicle: saline) is 137 % of control; the T/C under setting [11] was 141 % of control; the T/C (dose: 50.0 mg/kg/injection, schedule: Q01DX009 (ip), vehicle: saline) is 134 % of control; the T/C under setting [8] was 131 % of control.

As to `ClC1=C(Cl)[C@@]2(Cl)[C@H]3[C@H]4C[C@H]([C@@H]5O[C@H]45)[C@H]3[C@@]1(Cl)C2(Cl)Cl`, the survivor count (dose: 12.5 mg/kg/injection, schedule: Q01DX009 (ip), vehicle: Klucel (hydroxypropylcellulose) (HPC)) is given as 6 of 6.
